# PubChem BioAssay AID1508588 | Peter MacCallum Cancer Centre, 2020
# Aim: 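Genome-wide search for knock-downs that heighten vemurafenib action in melanoma cells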 (primary screen)
# System: human WM266.4 melanoma cells (BRAF V600 mutant)
# Reagents: siRNA pool against human genes, 40 nM
# Duration: 96 h from transfection to read-out
# Challenge: vemurafenib 300 nM (about IC25), added 48 h after transfection, for 48 h; comparison arm got DMSO vehicle only
# Measured: 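Ratios to non-targeting siRNA for cell gain, counted as DAPI nuclei after minus before drug and averaged over two replicates, and for absorbance-read medium lactate per cell; both binned into fold-change classes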
# Direction: cell gain with vemurafenib: higher = more cell gain than with non-targeting siRNA; lactate per cell with vemurafenib: higher = more lactate made per cell
# Rule for the call: 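a knock-down counts as enhancing when its fold-change classes with vehicle and with vemurafenib, taken together, show a stronger drug effect on cell gain or lactate per cell; exact class pairs not stated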
# Meaning of the calls: active = enhances vemurafenib effect; inactive = no enhancement seen
# The deposit covers about 18,000 reagents; shown is an unselected part. Over the whole deposit, 790 (4.4%) are marked active. 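Calls rest on a combination of fold-change classes in drug and vehicle arms, not all shown here.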 Some reagents were tested in more than one well and are listed for each. No sequences are given here.
cell gain with vemurafenib,lactate per cell with vemurafenib,outcome,target,PubChem SID
0.42,0.41,inactive,FABP4,SID134313702
1.02,1.36,inactive,P2RY11,SID152150121
1.09,0.92,inactive,CEACAM18,SID135625605
0.68,1.05,inactive,PARP1,SID135621231
0.3,0.72,inactive,BTRC,SID152154547
0.82,0.89,inactive,P2RY1,SID134311128
0.68,0.6,inactive,PHKG2,SID135620902
0.59,1.61,inactive,UGT1A1,SID135622341
0.6,0.81,inactive,KREMEN2,SID134310108
-0.01,2.94,inactive,YWHAE,SID135623306
0.86,0.99,inactive,NME8,SID152147668
0.72,0.53,inactive,HP1BP3,SID152147927
0.9,0.67,inactive,AGGF1,SID134324723
0.79,0.44,inactive,OR1E2,SID152150653
0.59,0.95,inactive,PFKFB1,SID135621245
0.73,1.34,inactive,PFKFB1,SID135621245
0.63,0.78,inactive,PLCD1,SID135621722
0.89,0.47,inactive,CHP2,SID152151350
0.84,0.97,inactive,C6orf62,SID152155508
0.21,1.55,inactive,UTP11,SID152147599
0.77,1.5,inactive,ZC3H13,SID152156074
0.53,1.56,inactive,MED31,SID152146932
0.19,-0.01,inactive,GPC6,SID134316397
0.81,0.42,inactive,SLC40A1,SID152154091
0.93,0.93,inactive,WDR7,SID152152097
0.8,0.92,inactive,PTCH1,SID135620758
0.69,0.7,active,UHRF1,SID152154245
0.6,0.82,inactive,USP51,SID152153883
0.18,0.5,inactive,NANOS1,SID152153890
0.93,0.29,inactive,PDE7B,SID152149718
0.12,0.92,inactive,AP1B1,SID134315557
0.73,0.44,inactive,MRAS,SID152148013
0.57,0.75,inactive,VIM,SID152149807
0.77,0.82,inactive,ZFP69,SID152153734
0.57,0.58,inactive,PEX13,SID152155590
0.61,0.63,inactive,SPINK8,SID135625509
0.43,0.88,inactive,DPH7,SID152147855
0.67,0.97,inactive,ZNF766,SID135624405
0.11,1.74,inactive,PLPPR2,SID134317945
0.15,1.38,active,SYNGAP1,SID134329971
0.59,1.45,inactive,GATA5,SID135621921
-0.01,0.6,inactive,DNAI2,SID135622681
0.92,0.84,inactive,ZBTB14,SID135622926
0.59,0.3,inactive,APLP2,SID134310302
0.4,1.8,inactive,FGFBP3,SID152147391
1.02,0.7,inactive,PRKAG2,SID135621825
0.38,1.36,inactive,LYZ,SID134315440
0.5,0.5,inactive,DRC11,SID135623171
0.47,2.15,inactive,RHBDL3,SID152155810
1.24,0.57,inactive,CSN2,SID152148311
1.1,0.81,inactive,ANTXR1,SID134315172
0.21,0.24,inactive,CYP2R1,SID152151753
0.19,2.17,inactive,RNASE6,SID152149172
1.19,0.32,inactive,SAP30,SID135622143
0.22,0.82,inactive,ENGASE,SID152150273
0.9,1.08,inactive,OR10R2,SID152146880
0.69,0.23,inactive,RGPD2,SID135625678
0.91,0.91,inactive,RC3H2,SID135623989
0.92,0.64,inactive,ANKRD35,SID152148083
-0.05,1.63,inactive,TMPRSS11D,SID152147792
0.54,0.57,inactive,NRF1,SID135623418
0.47,1.14,inactive,AMHR2,SID56478996
0.52,0.75,inactive,PLEKHH2,SID152147740
0.74,0.7,inactive,KLHL4,SID135622413
0.42,1.22,inactive,ZNF398,SID135622467
0.7,0.22,inactive,NDFIP1,SID134317644
0.17,1.51,inactive,CHST3,SID152152499
0.77,0.6,inactive,ZRSR2,SID152155575
0.83,0.71,inactive,METTL17,SID135622597
0.7,0.87,inactive,CDK5R2,SID56479219
0.4,1.33,inactive,ATP5PO,SID134323280
0.66,0.65,inactive,CHMP3,SID135620870
0.38,1.15,inactive,ACSM1,SID152149821
0.45,0.9,inactive,BCL2L11,SID135620818
-0.12,-0.06,active,ZNF630,SID135624468
0.92,0.26,inactive,DPAGT1,SID134315605
0.87,0.26,inactive,ZSCAN29,SID152155035
0.37,-0.05,active,TRAPPC1,SID135622610
0.82,0.84,inactive,BPI,SID152148012
0.49,0.99,inactive,TCEANC2,SID134319526
0.41,1.05,inactive,CDC40,SID134317447
0.81,1.62,inactive,CDK5R1,SID135621688
0.87,0.75,inactive,MKRN1,SID134312085
0.44,1.5,inactive,NOTCH2,SID134316520

11 entries from above, arranged by “lactate per cell with vemurafenib”, lowest first.
cell gain with vemurafenib,lactate per cell with vemurafenib,outcome,target,PubChem SID
0.7,0.22,inactive,NDFIP1,SID134317644
0.54,0.57,inactive,NRF1,SID135623418
0.77,0.6,inactive,ZRSR2,SID152155575
0.74,0.7,inactive,KLHL4,SID135622413
0.83,0.71,inactive,METTL17,SID135622597
0.52,0.75,inactive,PLEKHH2,SID152147740
0.7,0.87,inactive,CDK5R2,SID56479219
0.47,1.14,inactive,AMHR2,SID56478996
0.42,1.22,inactive,ZNF398,SID135622467
0.17,1.51,inactive,CHST3,SID152152499
-0.05,1.63,inactive,TMPRSS11D,SID152147792
